Data published in PMC12040169 (PLOS Biology, 2025).
The other results are listed elsewhere or left out.

Test system: T1, CTL2-GFP (C. trachomatis L2/434/Bu, GFP-expressing)
T1 construct: L2/434/Bu, GFP-expressing
Parameters: species or system HeLa; Intracellular C. trachomatis growth in HeLa cells, bulk GFP fluorescence relative to DMSO
Conditions: bulk GFP, single well; 28.5 h, 10 µM; inhibitor

In order of falling “% of control remaining” value:
1. O=C(C1CCC1)N1CC(n2nc(-c3ccccc3)ccc2=O)C1 [CBK284624]  165.591%
2. O=C(Cn1cc(-c2ccc(CN3CCCCC3)cc2)nn1)NCc1ccc(Cl)cc1Cl [CBK167689]  162.08%
3. COC(=O)c1sc(N2CCOCC2)c(C#N)c1N [CBK006430]  151.231%
4. O=C(O)c1cccc(-c2ccc(/C=C3\SC(=S)N(Cc4ccco4)C3=O)o2)c1 [CBK265726]  149.203%
5. O=c1c2cc(OCc3ccc(Cl)cc3)ccc2nc2n1CCC2 [CBK287977]  139.662%
6. O=c1c2cc(Cl)ccc2sc2ncccc12 [CBK008118]  138.673%
7. CC(=O)N[C@H]1[C@H](Oc2ccc3ccccc3c2)O[C@@H]2COC(C)(C)O[C@H]2[C@@H]1O [CBK091644]  135.709%
8. Cc1cccc(NS(=O)(=O)c2cc(C(=O)NCc3ccccn3)ccc2C)c1 [CBK268767]  132.991%
9. COc1cccc(N2C(=O)CC(N3CCN(Cc4ccc5c(c4)OCO5)CC3)C2=O)c1 (stereo not drawn) [CBK074411]  131.95%
10. Cc1occc1-c1nnc(SC2CCCCN(C(=O)c3ccc(Cl)cc3)C2=O)n1C (stereo not drawn) [CBK296990]  126.501%
11. O=C(Nc1nccs1)C1CCCN(C(=O)c2ccco2)C1 (stereo not drawn) [CBK296725]  125.869%
12. O=C(O)c1cccc(Nc2nc(-c3ccccc3)nc3ccccc23)c1 [CBK263941C]  125.319%
13. Cc1nn(Cc2cccc(C(=O)O)c2)c(C)c1Br [CBK286950]  124.404%
14. CN1CCC[C@H]1C(=O)Nc1ccc2ncccc2c1 [CBK159825]  124.385%
15. COc1ccc([C@H]2CN(C(=O)c3ccccn3)[C@@H]3CCCN(C(C)=O)[C@H]23)cc1 [CBK285523]  122.752%
16. CCn1nc(C)c(NC(=O)c2ncoc2-c2ccc(F)cc2)c1C [CBK282360]  121.538%
17. O=S(=O)(Nc1ccc(-c2nnn[nH]2)cc1)c1c(F)cccc1F [CBK154734]  120.952%
18. CC(=O)Nc1ccc(OCCO)cc1 [CBK149724]  120.317%
19. C/C(=C/C(=O)NCc1ccc(Cl)cc1)C(=O)O [CBK286954]  120.179%
20. COc1cccc(-c2cc(C(=O)Nc3nnn[nH]3)c3ccccc3n2)c1 [CBK262640]  120.07%
21. N#CCCCN1CCC(Oc2nccnc2OCc2cccc3ccccc23)CC1 [CBK161571]  119.248%
22. OCc1ccc(-c2cc(NCc3cccs3)n3nccc3n2)cc1 [CBK037046]  117.85%
23. CCOC(=O)c1nc(N)c2c(CC#N)nn(C)c2n1 [CBK023254]  117.537%
24. CS(=O)(=O)N1CC2(CCN(CC(=O)c3ccsc3)CC2)c2ccccc21 [CBK144595T]  117.504%
25. COc1cc(C2NC(=O)NC(O)(C(F)(F)F)C2C(=O)c2ccccc2)ccc1OCc1ccccc1 (stereo not drawn) [CBK264957]  117.277%
26. CS(=O)(=O)c1ccc(-c2ccc3ccc(=O)[nH]c3n2)cc1 [CBK073719]  116.172%
27. Cn1c(-c2ccccc2)cnc1NC(=O)C1CN(S(=O)(=O)c2ccc(F)cc2)C1 [CBK285945]  113.579%
28. Cc1ncsc1C(=O)N1CCNCC1c1cccc(F)c1 (stereo not drawn) [CBK305463]  113.129%
29. Cc1cc(CNS(=O)(=O)c2cccc3nonc23)nn1C [CBK062157]  112.323%
30. CC(C)[C@H](CO)Nc1cncc(-c2ccc(F)cc2F)n1 [CBK065883]  112.236%
31. O=C(O)/C(Cl)=C(\Cl)C(=O)N1CCC2(CC1)OCCc1c2[nH]c2ccccc12 [CBK047035]  109.279%
32. C=CCNC(=O)CSc1nc(O)cc(=O)[nH]1 [CBK073298]  105.486%
33. O=C(CN1C2CCC1CC(O)(c1ccco1)C2)NCc1ccccc1 (stereo not drawn) [CBK284105]  104.368%
34. CC(CCc1ccccc1)N(C)CCN(C)C (stereo not drawn) [CBK261933]  103.976%
35. CC(C)OCC(O)Cn1c(NC2CCCCC2)nc2c1c(=O)[nH]c(=O)n2C (stereo not drawn) [CBK140893]  103.815%
36. COCCNc1nccnc1-c1ccccc1 [CBK088555]  102.983%
37. CN1C2CCC1CC(OC(=O)CCN1CCOCC1)C2 (stereo not drawn) [CBK261465]  101.356%
38. O=C(c1ccoc1)N1CCN(S(=O)(=O)c2ccc3c(c2)Cc2cc(S(=O)(=O)N4CCN(C(=O)c5ccco5)CC4)ccc2-3)CC1 [CBK262299]  100.468%
39. Cc1cccc(C)c1N(CC(=O)O)S(C)(=O)=O [CBK262329]  100%
40. Cc1ccc2cc(CN(Cc3cccs3)C(=O)NCc3ccccc3)c(=O)[nH]c2c1C [CBK068496]  100%
41. O=C(/C=C/c1ccc(Cl)cc1)Nc1nnn[nH]1 [CBK265468]  100%
42. CCNC(=O)CN(C)S(=O)(=O)c1cc(Cl)ccc1Cl [CBK091853]  99.0288%
43. CNC(=O)C1(Cc2cccc(-c3cccs3)c2)CCN(C(=O)COc2ccccc2)CC1 [CBK285732]  98.8195%
44. CCCS(=O)(=O)Nc1cccc2[nH]ccc12 [CBK159488]  97.2281%
45. CC(=O)Nc1ccc(N/C=C(/C#N)c2nc(-c3ccc([N+](=O)[O-])cc3)cs2)cc1 [CBK262377]  95.3325%
46. O=S(=O)(NC1CCCCC1Oc1ccccc1)c1ccc(Cl)cc1 (stereo not drawn) [CBK264697]  92.8332%
47. O=C1CSC2(C(=O)N(Cc3cccc(C(F)(F)F)c3)c3ccccc32)N1c1ccccc1 (stereo not drawn) [CBK092392]  84.5278%
48. Cc1[nH]ncc1CN1CCCC(c2cc3ccccc3cn2)C1 (stereo not drawn) [CBK285029]  79.6138%
49. NS(=O)(=O)c1ccc(NC(=S)Nc2cccc(C(=O)O)c2)cc1 [CBK266880]  66.4788%
50. COC(=O)C#CCNc1cc(Cl)ccc1Cl [CBK025852]  41.0546%
51. COc1ccc2[nH]cc(CCNC(=O)c3ccc([N+](=O)[O-])c(C)c3)c2c1 [CBK269426]  23.9421%
